Assay results published in patent US9517222B2, “Method for the treatment of senile dementia of the Alzheimer's type” (Phenomenome Discoveries Inc., priority 2007, dated 2016).

Key:
[1] = Serum ethanolamine phospholipid levels in human cohorts (dementia severity, post-mortem pathology, age) by flow-injection MS/MS
[2] = Serum ethanolamine phospholipid ratios to PtdEt 16:0/18:0 (M01) in human cohorts
[3] = serum, females, post mortem SDAT
[4] = serum, females, post mortem control

CCCCCCCC/C=C\CCCCCCCC(=O)OC(COCCCCCCCCCCCCCCCCCC)COP(=O)(O)OCCN (centres unmarked) [Metabolite M10, Plasmanyl 18:0/18:1]
Ratio of serum levels ([1]; AD, All to CN, Male): 0.960 | Ratio of serum levels ([1]; ADAS 5-19 to CN, Male): 0.978 | Ratio of serum levels ([1]; ADAS 20-39 to 5-19, Male): 0.963 | Ratio of serum levels ([1]; ADAS 20-39 to CN, Male): 0.942 | Ratio of serum levels ([1]; ADAS 40-70 to 5-19, Male): 0.897 | Ratio of serum levels ([1]; ADAS 40-70 to 20-39, Male): 0.932 | Ratio of serum levels ([1]; ADAS 40-70 to CN, Male): 0.877 | Serum level, Mean ([1]; Cognitive Normal, Female): 0.054 | Average serum level, Mean ([1]; Cognitive Normal, Male): 0.054 | Serum level, Mean ([1]; Post Mortem Ctl, Male): 0.041 | Serum level, Mean ([1]; Post Mortem SDAT Male): 0.036 | Ratio of serum levels ([1]; Post mortem SDAT vs Control, Male): 0.608 | Serum level, Mean ([1]; SDAT, ADAS 5-19, Female): 0.049 | Average serum level, Mean ([1]; SDAT, ADAS 5-19, Male): 0.053 | Serum level, Mean ([1]; SDAT, ADAS 20-39, Female): 0.047 | Average serum level, Mean ([1]; SDAT, ADAS 20-39, Male): 0.051 | Serum level, Mean ([1]; SDAT, ADAS 40-70, Female): 0.048 | Average serum level, Mean ([1]; SDAT, ADAS 40-70, Male): 0.047 | Serum level, Mean ([1]; SDAT_all, Female): 0.048 | Average serum level, Mean ([1]; SDAT_all, Male): 0.052 | Ratio, ADAS 5-19 to CN, Female ([1]; serum level ratio, females, ADAS 5-19 vs CN): 0.895 | Ratio, ADAS 20-39 to 5-19, Female ([1]; serum level ratio, females, ADAS 20-39 vs ADAS 5-19): 0.961 | Ratio, ADAS 20-39 to CN, Female ([1]; serum level ratio, females, ADAS 20-39 vs CN): 0.860 | Ratio, ADAS 40-70 to 5-19, Female ([1]; serum level ratio, females, ADAS 40-70 vs ADAS 5-19): 0.987 | Ratio, ADAS 40-70 to 20-39, Female ([1]; serum level ratio, females, ADAS 40-70 vs ADAS 20-39): 1.027 | Ratio, ADAS 40-70 to CN, Female ([1]; serum level ratio, females, ADAS 40-70 vs CN): 0.883 | Ratio, 50-59 vs. 40-49, Female ([1]; serum level ratio, females, age 50-59 vs 40-49): 0.841 | Ratio, 60-69 vs. 40-49, Female ([1]; serum level ratio, females, age 60-69 vs 40-49): 0.882 | Ratio, 70+ vs. 40-49, Female ([1]; serum level ratio, females, age 70+ vs 40-49): 0.863 | Ratio, AD, All to CN, Female ([1]; serum level ratio, females, all AD vs cognitively normal): 0.877 | Ratio, Autopsy AD vs. Control, Female ([1]; serum level ratio, females, autopsy AD vs control): 0.672 | Ratio, 50-59 vs. 40-49, Male ([1]; serum level ratio, males, age 50-59 vs 40-49): 0.953 | Ratio, 60-69 vs. 40-49, Male ([1]; serum level ratio, males, age 60-69 vs 40-49): 1.061 | Ratio, 70+ vs. 40-49, Male ([1]; serum level ratio, males, age 70+ vs 40-49): 1.013 | Mean serum level, Age Ctl, 30-39, Female ([1]; serum, females, age 30-39): 0.050 | Mean serum level, Age Ctl, 40-49, Female ([1]; serum, females, age 40-49): 0.059 | Mean serum level, Age Ctl, 50-59, Female ([1]; serum, females, age 50-59): 0.049 | Mean serum level, Age Ctl, 60-69, Female ([1]; serum, females, age 60-69): 0.052 | Mean serum level, Age Ctl, 70+, Female ([1]; serum, females, age 70+): 0.051 | Mean serum level, Post Mortem SDAT, Female [1, 3]: 0.025 | Mean serum level, Post Mortem Ctl, Female [1, 4]: 0.053 | Mean serum level, Age Ctl, 30-39, Male ([1]; serum, males, age 30-39): 0.058 | Mean serum level, Age Ctl, 40-49, Male ([1]; serum, males, age 40-49): 0.052 | Mean serum level, Age Ctl, 50-59, Male ([1]; serum, males, age 50-59): 0.049 | Mean serum level, Age Ctl, 60-69, Male ([1]; serum, males, age 60-69): 0.055 | Mean serum level, Age Ctl, 70+, Male ([1]; serum, males, age 70+): 0.053 | Ratio of ethanolamine phospholipid ratios to M01 between cohorts ([2]; AD, All to CN, Male): 0.910 | Ratio of ethanolamine phospholipid ratios to M01 between cohorts ([2]; ADAS 5-19 to CN, Male): 0.932 | Ratio of ethanolamine phospholipid ratios to M01 between cohorts ([2]; ADAS 20-39 to CN, Male): 0.913 | Ratio of ethanolamine phospholipid ratios to M01 between cohorts ([2]; ADAS 40-70 to CN, Male): 0.843 | Average serum ethanolamine phospholipid ratio to M01, Mean ([2]; Cognitive Normal, Male, serum): 0.483 | Average serum ethanolamine phospholipid ratio to M01, Mean ([2]; SDAT, ADAS 5-19, Male, serum): 0.450 | Average serum ethanolamine phospholipid ratio to M01, Mean ([2]; SDAT, ADAS 20-39, Male, serum): 0.441 | Average serum ethanolamine phospholipid ratio to M01, Mean ([2]; SDAT, ADAS 40-70, Male, serum): 0.408 | Average serum ethanolamine phospholipid ratio to M01, Mean ([2]; SDAT_all, Male, serum): 0.440 | Ethanolamine Phospholipid Ratio to M01, Mean, Age Ctl, 30-39, Female ([2]; human serum, females aged 30-39): 0.491 | Ethanolamine Phospholipid Ratio to M01, Mean, Age Ctl, 40-49, Female ([2]; human serum, females aged 40-49): 0.535 | Ethanolamine Phospholipid Ratio to M01, Mean, Age Ctl, 50-59, Female ([2]; human serum, females aged 50-59): 0.490 | Ratio of Ethanolamine Phospholipid Ratio to M01, 50-59 vs. 40-49, Female ([2]; human serum, females aged 50-59 vs. females aged 40-49): 0.917 | Ethanolamine Phospholipid Ratio to M01, Mean, Age Ctl, 60-69, Female ([2]; human serum, females aged 60-69): 0.424 | Ratio of Ethanolamine Phospholipid Ratio to M01, 60-69 vs. 40-49, Female ([2]; human serum, females aged 60-69 vs. females aged 40-49): 0.792 | Ethanolamine Phospholipid Ratio to M01, Mean, Age Ctl, 70+_Female ([2]; human serum, females aged 70+): 0.422 | Ratio of Ethanolamine Phospholipid Ratio to M01, 70+ vs. 40-49, Female ([2]; human serum, females aged 70+ vs. females aged 40-49): 0.789 | Ratio of Ethanolamine Phospholipid Ratio to M01, 50-59 vs. 40-49, Male ([2]; human serum, males aged 50-59 vs. males aged 40-49): 0.981 | Ratio of Ethanolamine Phospholipid Ratio to M01, 60-69 vs. 40-49, Male ([2]; human serum, males aged 60-69 vs. males aged 40-49): 0.924 | Ratio of Ethanolamine Phospholipid Ratio to M01, 70+ vs. 40-49, Male ([2]; human serum, males aged 70+ vs. males aged 40-49): 0.896 | Ratio of ethanolamine phospholipid ratio to M01, ADAS 5-19 to CN, Female ([2]; serum, females, ADAS 5-19 vs cognitive normal): 0.963 | Ratio of ethanolamine phospholipid ratio to M01, ADAS 20-39 to 5-19, Female ([2]; serum, females, ADAS 20-39 vs ADAS 5-19): 0.948 | Ratio of ethanolamine phospholipid ratio to M01, ADAS 20-39 to CN, Female ([2]; serum, females, ADAS 20-39 vs cognitive normal): 0.913 | Ratio of ethanolamine phospholipid ratio to M01, ADAS 40-70 to 5-19, Female ([2]; serum, females, ADAS 40-70 vs ADAS 5-19): 0.926 | Ratio of ethanolamine phospholipid ratio to M01, ADAS 40-70 to 20-39, Female ([2]; serum, females, ADAS 40-70 vs ADAS 20-39): 0.977 | Ratio of ethanolamine phospholipid ratio to M01, ADAS 40-70 to CN, Female ([2]; serum, females, ADAS 40-70 vs cognitive normal): 0.892 | Ethanolamine phospholipid ratio to M01, Mean, SDAT, ADAS 5-19, Female ([2]; serum, females, SDAT ADAS 5-19): 0.451 | Ethanolamine phospholipid ratio to M01, Mean, SDAT, ADAS 20-39, Female ([2]; serum, females, SDAT ADAS 20-39): 0.428 | Ethanolamine phospholipid ratio to M01, Mean, SDAT, ADAS 40-70, Female ([2]; serum, females, SDAT ADAS 40-70): 0.418 | Ratio of ethanolamine phospholipid ratio to M01, AD, All to CN, Female ([2]; serum, females, all AD vs cognitive normal): 0.919 | Ethanolamine phospholipid ratio to M01, Mean, SDAT_all Female ([2]; serum, females, all SDAT): 0.431 | Ratio of ethanolamine phospholipid ratio to M01, Autopsy AD vs. Control, Female ([2]; serum, females, autopsy AD vs post mortem control): 1.003 | Ethanolamine phospholipid ratio to M01, Mean, Cognitive Normal, Female ([2]; serum, females, cognitive normal): 0.469 | Ethanolamine phospholipid ratio to M01, Mean, Post Mortem SDAT Female [2, 3]: 0.291 | Ethanolamine phospholipid ratio to M01, Mean, Post Mortem Ctl, Female [2, 4]: 0.290 | Ratio of ethanolamine phospholipid ratio to M01, ADAS 20-39 to 5-19, Male ([2]; serum, males, SDAT ADAS 20-39 vs ADAS 5-19): 0.980 | Ratio of ethanolamine phospholipid ratio to M01, ADAS 40-70 to 5-19, Male ([2]; serum, males, SDAT ADAS 40-70 vs ADAS 5-19): 0.905 | Ratio of ethanolamine phospholipid ratio to M01, ADAS 40-70 to 20-39, Male ([2]; serum, males, SDAT ADAS 40-70 vs ADAS 20-39): 0.923 | Ethanolamine phospholipid ratio to M01, Mean, Age Ctl, 30-39, Male ([2]; serum, males, age control 30-39): 0.464 | Ethanolamine phospholipid ratio to M01, Mean, Age Ctl, 40-49, Male ([2]; serum, males, age control 40-49): 0.454 | Ethanolamine phospholipid ratio to M01, Mean, Age Ctl, 50-59, Male ([2]; serum, males, age control 50-59): 0.445 | Ethanolamine phospholipid ratio to M01, Mean, Age Ctl, 60-69, Male ([2]; serum, males, age control 60-69): 0.419 | Ethanolamine phospholipid ratio to M01, Mean, Age Ctl, 70+_Male ([2]; serum, males, age control 70+): 0.407 | Ethanolamine phospholipid ratio to M01, Mean, Post Mortem SDAT Male ([2]; serum, males, post mortem SDAT): 0.269 | Ratio of ethanolamine phospholipid ratio to M01, SDAT vs Control (post mortem, males) ([2]; serum, males, post mortem SDAT vs post mortem control): 0.798 | Ethanolamine phospholipid ratio to M01, Mean, Post Mortem Ctl, Male ([2]; serum, males, post mortem control): 0.337

A unit is not stated for every read-out.
